According to patent US20200325230A1:
Results are given in words; binding and its absence hold for the method and conditions named. Some entries that bind do so weakly or less than the wild type.

Assays:
[1] = biological target: cynomolgus BTLA expressed on HEK-293 cells (cynomolgus); assay: flow cytometry on HEK-293 cells expressing cynomolgus BTLA
[2] = biological target: cynomolgus BTLA expressed on HEK-293 cells (cynomolgus); assay: flow cytometry, 293 cells expressing cynomolgus BTLA, fluorophore-conjugated anti-human IgG secondary
[3] = biological target: cynomolgus BTLA expressed on HEK-293 cells (cynomolgus); assay: flow cytometry on HEK 293 cells expressing cynomolgus BTLA

Measured: binding

B1: anti-BTLA antibody 13-F7A (antibody, V domains shown)
VH: EVQLLESGGGLVQPGGSLRLSCAASGFTSSSYGMSWVRQAPGKGLEWVSGISGSGGGTYYADSVKGRFTISRDNSKNTLYLQMNSLRAEDTAVYYCAKGDYYGSGSYPLFDYWGQGTLVTVSS
VL: AIQLTQSPSSLSASVGDRVTITCRASQDISSALAWYQQKPGKAPKLLISDASSLESGVPSRFSGSGSGTDFTLTISSLQPEDFATFYCQQFNNYPPTFGPGTKVDIK
binds: all assays above
